Data published in patent US20140120543A1.
Results are given in words; binding and its absence hold for the method and conditions named. Binding seen in cells or lysates may run through a third protein. Some results given as binding are weak or reduced against the parent protein; the word gives no strength.

By UniProt entry, the sequences of proteins in these tests, tags left out. Where a name states a change or a piece, a line headed by the entry shows the natural chain unless it says otherwise.
UniProt P43246: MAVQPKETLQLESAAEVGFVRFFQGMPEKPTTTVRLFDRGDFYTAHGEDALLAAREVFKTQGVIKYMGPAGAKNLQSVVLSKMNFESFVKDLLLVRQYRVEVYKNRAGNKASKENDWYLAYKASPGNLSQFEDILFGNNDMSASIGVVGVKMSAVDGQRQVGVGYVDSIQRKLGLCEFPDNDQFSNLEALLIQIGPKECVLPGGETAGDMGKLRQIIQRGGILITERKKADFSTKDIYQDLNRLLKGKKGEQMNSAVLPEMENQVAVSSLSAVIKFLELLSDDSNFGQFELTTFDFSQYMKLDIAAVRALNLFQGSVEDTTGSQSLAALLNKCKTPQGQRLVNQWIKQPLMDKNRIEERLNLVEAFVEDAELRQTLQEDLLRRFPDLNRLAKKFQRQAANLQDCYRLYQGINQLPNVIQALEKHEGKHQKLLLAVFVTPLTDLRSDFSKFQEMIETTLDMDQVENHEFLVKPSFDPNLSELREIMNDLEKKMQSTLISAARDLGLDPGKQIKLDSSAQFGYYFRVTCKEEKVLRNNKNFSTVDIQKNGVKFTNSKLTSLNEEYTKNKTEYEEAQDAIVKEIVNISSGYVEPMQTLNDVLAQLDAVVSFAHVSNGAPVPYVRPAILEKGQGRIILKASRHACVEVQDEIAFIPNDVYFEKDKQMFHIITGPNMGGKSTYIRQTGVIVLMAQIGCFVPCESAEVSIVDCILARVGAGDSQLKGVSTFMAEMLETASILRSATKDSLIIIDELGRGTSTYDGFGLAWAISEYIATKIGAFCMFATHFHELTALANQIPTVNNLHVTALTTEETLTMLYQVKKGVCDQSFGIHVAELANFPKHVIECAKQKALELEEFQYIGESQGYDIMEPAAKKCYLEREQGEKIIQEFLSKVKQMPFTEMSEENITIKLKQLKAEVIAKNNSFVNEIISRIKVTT
UniProt Q8IY92: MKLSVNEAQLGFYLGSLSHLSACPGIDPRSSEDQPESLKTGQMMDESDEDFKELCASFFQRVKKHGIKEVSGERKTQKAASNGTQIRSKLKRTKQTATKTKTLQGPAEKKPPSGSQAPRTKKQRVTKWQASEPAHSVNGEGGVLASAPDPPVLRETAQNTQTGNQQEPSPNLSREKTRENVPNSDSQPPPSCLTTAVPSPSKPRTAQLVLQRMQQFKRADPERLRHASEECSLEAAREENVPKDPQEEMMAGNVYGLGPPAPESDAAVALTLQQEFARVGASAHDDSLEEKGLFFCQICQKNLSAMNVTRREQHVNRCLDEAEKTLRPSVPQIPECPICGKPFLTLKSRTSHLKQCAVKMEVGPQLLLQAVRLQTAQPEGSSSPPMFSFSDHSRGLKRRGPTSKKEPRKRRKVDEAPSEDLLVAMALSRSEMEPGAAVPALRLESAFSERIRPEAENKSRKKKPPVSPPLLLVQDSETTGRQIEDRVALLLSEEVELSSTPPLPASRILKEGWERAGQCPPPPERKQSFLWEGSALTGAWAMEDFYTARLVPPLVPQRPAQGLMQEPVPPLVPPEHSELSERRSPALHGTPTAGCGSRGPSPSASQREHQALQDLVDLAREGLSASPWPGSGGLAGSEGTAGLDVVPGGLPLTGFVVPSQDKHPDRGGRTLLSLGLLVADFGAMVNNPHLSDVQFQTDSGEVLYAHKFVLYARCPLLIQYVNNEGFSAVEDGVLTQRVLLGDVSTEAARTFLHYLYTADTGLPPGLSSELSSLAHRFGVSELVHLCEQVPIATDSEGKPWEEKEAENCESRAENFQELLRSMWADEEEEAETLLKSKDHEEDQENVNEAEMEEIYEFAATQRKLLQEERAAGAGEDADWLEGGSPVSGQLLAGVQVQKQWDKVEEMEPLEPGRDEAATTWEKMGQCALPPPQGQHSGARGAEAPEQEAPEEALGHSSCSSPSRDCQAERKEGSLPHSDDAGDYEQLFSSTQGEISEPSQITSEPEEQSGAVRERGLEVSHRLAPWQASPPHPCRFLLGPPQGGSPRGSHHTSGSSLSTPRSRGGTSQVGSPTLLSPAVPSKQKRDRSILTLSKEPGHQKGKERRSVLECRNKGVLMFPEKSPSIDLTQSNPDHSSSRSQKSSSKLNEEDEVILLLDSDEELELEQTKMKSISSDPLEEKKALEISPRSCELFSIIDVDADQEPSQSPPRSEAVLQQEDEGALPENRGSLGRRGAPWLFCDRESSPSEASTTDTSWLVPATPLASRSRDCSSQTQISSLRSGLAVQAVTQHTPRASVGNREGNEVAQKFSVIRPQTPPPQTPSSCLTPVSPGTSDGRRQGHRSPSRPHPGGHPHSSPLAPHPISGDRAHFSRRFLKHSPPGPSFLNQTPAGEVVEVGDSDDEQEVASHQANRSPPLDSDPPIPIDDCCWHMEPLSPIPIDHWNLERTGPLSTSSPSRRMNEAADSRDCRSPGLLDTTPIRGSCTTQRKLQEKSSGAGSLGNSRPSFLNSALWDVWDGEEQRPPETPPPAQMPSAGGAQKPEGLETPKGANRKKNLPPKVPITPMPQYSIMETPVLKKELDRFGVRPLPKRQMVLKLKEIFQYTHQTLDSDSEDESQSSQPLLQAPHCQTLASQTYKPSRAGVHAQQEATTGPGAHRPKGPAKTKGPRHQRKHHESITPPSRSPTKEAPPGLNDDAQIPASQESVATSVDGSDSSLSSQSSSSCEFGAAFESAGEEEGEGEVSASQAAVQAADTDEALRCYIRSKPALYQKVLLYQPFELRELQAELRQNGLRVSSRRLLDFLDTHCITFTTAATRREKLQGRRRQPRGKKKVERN

Tests used:
[1] = biological target: DNA mismatch repair protein MSH2 (MutS protein homolog 2) (human) (UniProt P43246); experiment: proximity ligation assay (Duolink) in A549 cells
SLX4 protein (human) [2] = biological target: SLX4 protein (human) (UniProt Q8IY92); experiment: proximity ligation assay (Duolink) in A549 cells
[3] = biological target: DNA mismatch repair protein MSH2 (MutS protein homolog 2) (human) (UniProt P43246); experiment: proximity ligation assay (Duolink), ERCC1 detected with FL297 antibody
SLX4 protein (human) [4] = biological target: SLX4 protein (human) (UniProt Q8IY92); experiment: as above

Measured: binding

B1: ERCC1-202 isoform (isoform 202 of the ERCC1 protein) (protein)
chain: MDPGKDKEGVPQPSGPPARKKFVIPLDEDEVPPGVAKPLFRSTQSLPTVDTSAQAAPQTYAEYAISQPLEGAGATCPTGSEPLAGETPNQALKPGAKSNSIIVSPRQRGNPVLKFVRNVPWEFGDVIPDYVLGQSTCALFLSLRYHNLHPDYIHGRLQSLGKNFALRVLLVQVDVKDPQQALKELAKMCILADCTLILAWSPEEAGRYLETYKAYEQKPADLLMEKLEQDFVSRVTECLTTVKSVNKTDSQTLLTTFGSLEQLIAASREDLALCPGLGPQKARRLFDVLHEPFLKVP
binds: [1] | SLX4 protein (human) [2] | [3] | SLX4 protein (human) [4]
